# Percent effect of library compounds

Data taken from ChEMBL document CHEMBL3988442, “University of Dundee, Small-Polar-MMV Screening Library” (2021).

A: 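Growth of Mycobacterium tuberculosis over 4 days (cholesterol / DPPC medium with tyloxapol); the read-out is not stated. Compounds at 50 µM. Direction is inferred from retests: higher values go with more growth inhibition. About 69,000 compounds were tested under these conditions; 0.54% (about 370) showed 50% or more at least once.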
B: 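Phenotypic screen: M. tuberculosis growth, glucose 7H9 medium, 3 days; the read-out is not stated. Tested at 50 µM. The record gives no direction; compounds that gave an IC50 in retests scored well above the rest, so higher reads as more growth inhibition. Size under these conditions: about 69,000 compounds, about 760 of them at 50% or above in at least one test.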

Values are the deposited “Percent Effect”, in %. How 0% and 100% were set is not recorded. Most values in the screen are low, and negative values occur. The compounds are a random part of those screened. Two or more numbers in one place are separate tests of the same structure; such repeats can differ widely.

structure	A	B
O=C(CCc1nc(Cl)n[nH]1)N1CCC2(CCCNC2=O)C1 (configuration not stated)	-6.576%	-26.29%
COc1ccccc1CC(NC(=O)N1CCC[C@@H]1CO)C(C)C (some centres not stated)	-8.149%	-15.1% and 4.556%
CN(C(=O)c1cccc(C#N)c1)c1nnc(C2CCOC2)s1 (configuration not stated)	-13.2% and -16.45%	-5.45%
C=C(C)CN1CCCC1c1nc(Cc2ccc(F)cc2)no1 (configuration not stated)	-6.697%	3.458% and -9.204%
CCN(C)CC1CCN(C(=O)Nc2ccc(-c3csnn3)cc2)C1 (configuration not stated)	-8.092%	-52.28%
C1CCN(CCOC2CCNC2)CC1.Cl.Cl (configuration not stated)	12.33%	13.39% and -10.34%
COc1cccc(-c2noc(C3CCN(Cc4cccs4)C3)n2)c1.Cl (configuration not stated)	-11.42%	-12.38%
CCOC(=O)C1(Cc2cccc(OC)c2)CCCN(Cc2ncc[nH]2)C1 (configuration not stated)	-15.87%	-0.1726% and 5.292%
CNC(=O)c1cccc(Nc2cnn(C)c2)c1	15.58% and 17.3%	4.249%
CCN(CCn1cccn1)Cc1nc(-c2ccccc2F)oc1C	-7.838%	0.6447% and -7.371%
Cc1noc2ncc(C(=O)NCC3CCN(C(C)C)C3)cc12 (configuration not stated)	5.042%	-14.03%
Cc1sc2nc(CCN)nc(N3CCN(S(C)(=O)=O)CC3)c2c1C	6.685%	-5.737%
CN(Cc1cccnc1)Cc1cn2c(n1)CN(C1CCOC1)CC2.O=C(O)C(F)(F)F.O=C(O)C(F)(F)F.O=C(O)C(F)(F)F (configuration not stated)	-2.351%	-21.82%
COc1cccc(CNc2cc(CO)ccc2Cl)c1	-14.55%	-7.219%
Cc1cccc(CS(=O)(=O)NCc2nn(C)c3c2CCCC3)c1	-6.145%	8.46% and -12.66%
O=C(c1ccco1)N1CCC2(CC1)C(=O)NCCN2CC1CC1	-39.69%	-46.01%
[H][C@@]12COC[C@]1(COCc1ccccn1)CN(c1ncccn1)C2	-11.67%	-7.429%
CN1CCn2nc(-c3nc4ccccc4n3C)cc2C1	-21.63%	-42.47%
[H][C@@]12CN(Cc3ccc(C(F)(F)F)cc3)C[C@]1([H])OCC(=O)N2	12.23%	13.85% and 10.08%
O=C(CN1CCc2ccccc21)NCc1ccc(Cl)cc1	-37%	22.6% and 7.793%
COc1cc(CN(C)Cc2ccncc2)c(SC)cc1OC	20.25%	27.92% and 4.48%
Cc1ncncc1-c1ccnc(N)n1	-2.395%	16.43%
CCN1CCc2c(sc3c2C(=O)NC(/C=C/c2ccco2)N3)C1 (configuration not stated)	-66.11%	-70.37%
O=C(O)[C@@H]1CCN(C(=O)c2cscn2)[C@@H]1c1ccc(F)cc1	-12.73%	-22.73%
Cc1csc2c(C3CCCN(C(=O)Cn4cncn4)C3)nc(C)n12 (configuration not stated)	10.55%	22.82%
Cc1c(Cl)cc(C(=O)NCCc2ncnn2C)cc1Cl	20.63%	12.69%
NS(=O)(=O)c1ccc(CNC(=O)c2ccc(Cl)cc2F)cc1	-23.32%	6.333%
Cc1nc(C)n(CC2CCCN(c3ncnc4[nH]ccc34)C2)n1 (configuration not stated)	7.915%	8.95%
Cc1noc(C)c1CN1CCN(C)c2ncccc2C1.O=C(O)C(F)(F)F.O=C(O)C(F)(F)F	2.015% and -8.821%	-5.375%
O=C(O)CC(O)(CC(=O)O)C(=O)O.[H][C@@]12CC[C@@](O)(c3ncccc3C)[C@]1([H])CN(Cc1cccc(Cl)c1Cl)C2	-11.02%	-6.124%
Cc1ccsc1C(=O)NCc1ccnc(C2CCCOC2)n1 (configuration not stated)	-17.94% and 3.266%	6.188%
Cl.N[C@@H](Cc1ccccc1)c1nnc(S(=O)(=O)Cc2ccc(Cl)cc2)o1	-0.7083%	-4.596%
Cc1noc(-c2ccnc(N3CCN(C4CCOCC4)CC3)c2)n1	-10.97%	-51.55%
CCCC(C)CN1CCC(n2cc(CCCO)nn2)CC1 (configuration not stated)	-3.164%	14.5% and -10.26%
COc1cccc(OCC2CCCN(C(C)=O)C2)c1 (configuration not stated)	6.232%	14.83%
[H][C@@]12COC[C@]1([H])[C@@H](OCC1CCN(C)CC1)CN2Cc1ccc(C)o1	-14.36%	-10.84%
COc1ccccc1C1Cn2c(C)cnc2CN1Cc1ccc(C)nc1 (configuration not stated)	-0.3805%	-8.996%
Cc1[nH]c2ccc(C(=O)N3C[C@@H](O)[C@H](N4CCOCC4)C3)cc2c1C	-1.797%	18.49%
CNC(=O)CN(C)c1nc(-c2ccncc2)nc2c1CCN(C(C)=O)C2	-6.743%	-34.88%
COc1cc(Cl)c(C)cc1NC(=O)CCNc1ccc(C#N)cn1	-14.63% and -3.965%	-33.59%
CCOCC1CC2(CCN(Cc3ccccn3)CC2)CO1 (configuration not stated)	-6.874%	14.98%
CCC(=O)N1CCC(n2cc(C(C)(C)O)nn2)CC1	0.4519%	-21.68% and -5.887%
COc1nn(C)c2c1CCCN(S(=O)(=O)c1ccccc1F)C2	5.396% and -2.41%	8.651% and 5.878%
CC(C)c1nc2c(n1C)CCN(CCS(=O)(=O)c1ccccc1)C2	12.76%	24.39%
O=C(c1ccnnc1)N1CC[C@@H](O)[C@@H]1Cc1ccccc1	-2.736% and -3.895%	-15.56%
C=C(C)CN1CCC(c2n[nH]c(C3CC3)n2)CC1	-8.026%	-26.45%
CN1CCCC1CCNC(=O)c1ccccc1-n1cc(CN)cn1 (configuration not stated)	-4.476% and 6.449%	-8.197%
CCSCCN1CCCN(S(C)(=O)=O)CC1	-1.592% and -47.29%	-31.49%
CCCNC(=O)Nc1ccn(CCCOC)n1	-7.193%	9.587%
O=C(Cc1c(F)cccc1Cl)N1CCC(Nc2cccnn2)CC1	2.257%	2.613%
O=C(O)C(F)(F)F.[H][C@@]12CN(Cc3cncn3C)C[C@]1([H])OCCN2c1ncccn1	1.444%	-5.473%
Cc1ccccc1-c1csc2c(=O)[nH]c(N3CCCC(C(=O)O)C3)nc12 (configuration not stated)	-28.7%	-37.91% and -7.657%
CC(C)C(=O)N1CCN(c2ncnc3cc4c(cc23)OCCO4)CC1	6.326%	-63.01%
CS(=O)(=O)N(Cc1ccon1)c1cccc(Br)c1	-6.535%	-5.466%
NC(=O)c1nc(CN2CCOC(C(F)(F)F)C2)no1 (configuration not stated)	-30.5%	-28.82%
CNS(=O)(=O)c1cccc(C(C)NCc2ccc(C)o2)c1 (configuration not stated)	14.51%	-1.543% and -0.6349%
O=C(O)C(F)(F)F.O=C(O)C(F)(F)F.O=C1NC2(CCN(Cc3ccc(F)cc3)CC2)CC1c1ccncc1 (configuration not stated)	-11.45%	-4.62%
Cc1nnc(CN(C)CC2(O)CCCN(CCC3CCCCC3)C2=O)o1 (configuration not stated)	-11.42%	-21.87%
CC(C)(C)c1noc(CN2CCCC(CNS(N)(=O)=O)C2)n1 (configuration not stated)	5.97%	-2.516% and -0.9416%
Cc1noc(C)c1C(=O)NCc1ccc(N2CCC(C)CC2)nc1	-7.913%	-3.341%
Cc1ccc(C#N)c(N2CCC3(CCCN(C4CCOCC4)C3=O)C2)n1 (configuration not stated)	26.16%	6.921%
Cc1ncsc1CNC(=O)N(CCCO)C1CCc2ccccc21 (configuration not stated)	-20.08%	-1.701%
Cc1cc(C)n(C2CCCN(C(=O)c3ccc(F)c(F)c3)C2)n1 (configuration not stated)	5.592%	20.15%
CC(CC#N)N(C)Cc1ccccc1Cl (configuration not stated)	7.241% and 2.429%	11.79% and 6.463%
COCCN(C(=O)c1ccsc1)c1ccc(C#N)cc1	-7.386%	-34.99% and 12.55%
COc1ccc(C)c(NC(=O)NCc2cccc(N(C)C)n2)c1	17.58%	28.01%
COc1ccc(CC(=O)N2CCC(c3nnc4n3CCC4)CC2)cc1F	6.175% and -16.53%	-21.9%
Cc1noc(C)c1-c1cncc(C2CCCN2Cc2cc[nH]n2)n1 (configuration not stated)	-9.363%	5.461%
O=C(O)C(F)(F)F.O=S(=O)(C1CC1)N1CCc2onc(COc3ccccn3)c2C1	-16.6%	-28.83% and -2.537%
O=C(COc1ccccc1)N1CCC[C@]2(C[C@H](OCC3CC3)CO2)C1	-9.361%	6.201%

Some entries from above, unchanged:

structure	A	B
CC(C)C(=O)N1CCN(c2ncnc3cc4c(cc23)OCCO4)CC1	6.326%	-63.01%
Cc1c(Cl)cc(C(=O)NCCc2ncnn2C)cc1Cl	20.63%	12.69%
COc1cccc(-c2noc(C3CCN(Cc4cccs4)C3)n2)c1.Cl (configuration not stated)	-11.42%	-12.38%
O=C(CN1CCc2ccccc21)NCc1ccc(Cl)cc1	-37%	22.6% and 7.793%
CCC(=O)N1CCC(n2cc(C(C)(C)O)nn2)CC1	0.4519%	-21.68% and -5.887%
COc1ccccc1C1Cn2c(C)cnc2CN1Cc1ccc(C)nc1 (configuration not stated)	-0.3805%	-8.996%
CCOCC1CC2(CCN(Cc3ccccn3)CC2)CO1 (configuration not stated)	-6.874%	14.98%
CNC(=O)CN(C)c1nc(-c2ccncc2)nc2c1CCN(C(C)=O)C2	-6.743%	-34.88%